Assay results published in paper PMC6895180 (Nature Communications, 2019).
Several values for one entry are separate records, joined by “and”; a condition that tells them apart may be missing. Equal values may be shown once.

Key:
P1 transporter = type: cell-based, Trypanosoma brucei; conditions: for P1 transporter ΔG^0: Gibbs free energy from −RT ln(Ki); for P1 transporter δ(ΔG^0): in comparison to adenosine
Method: Non-specific association of radiolabel with the cell pellet was determined using an identical incubation in the presence of saturating (1 mM) unlabelled adenosine.

[1] = test system: T. brucei Lister 427 cells; assay: Nucleotide pool analysis (HPLC); type: cell-based, Trypanosoma brucei
Source text: (1 picture or pasted object on this page, not shown here)
The following primers were used: […]

[2] = T. brucei treated with analogue 9
[3] = T. brucei treated with analogue 9, 4 independent samples

SMILES: Nc1ncnc2c1ncn2[C@@H]1O[C@H](CO)[C@@H](O)[C@H]1O [Adenosine, reference compound]
- P1 transporter ΔG^0 (P1 transporter): -39.4 kJ/mol

SMILES: Nc1ncnc2c1ncn2[C@@H]1O[C@H](CO)C[C@H]1O [Compound 3, cordycepin, reference compound]
- P1 transporter ΔG^0 (P1 transporter): -21.0 kJ/mol
- P1 transporter δ(ΔG^0) (P1 transporter): 18.4 kJ/mol

SMILES: Nc1ncnc2c1c(Br)cn2[C@@H]1O[C@H](CO)[C@@H](O)[C@H]1O [Compound 8, 7-bromotubercidin]
- δ(ΔG^0) associated with the 3′-OH at P1 (P1 transporter; 8 versus 10): 1.6 kJ/mol
- P1 transporter ΔG^0 (P1 transporter): -30.3 kJ/mol
- P1 transporter δ(ΔG^0) (P1 transporter): 9.1 kJ/mol

SMILES: Nc1ncnc2c1ccn2[C@@H]1O[C@H](CO)C[C@H]1O [Compound 9, 3’-deoxytubercidin]
- intracellular fate in T. brucei ([1]; 25 μM): internalized and metabolized by T. brucei to mono-, di- and triphosphates
- 9-DP [1, 2]: 4.816 pmol/million cells and 4.114 pmol/million cells and 3.369 pmol/million cells and 6.646 pmol/million cells
- 9-DP, concentration in sample [1, 2]: 3.211 µM and 2.742 µM and 2.246 µM and 4.43 µM
- 9-TP [1, 2]: 2.086 pmol/million cells and 2.111 pmol/million cells and 2.5512 pmol/million cells and 2.95 pmol/million cells
- 9-TP, concentration in sample [1, 2]: 1.39 µM and 1.407 µM and 1.7008 µM and 1.967 µM
- ATP [1, 2]: 5.408 pmol/million cells and 7.169 pmol/million cells and 9.265 pmol/million cells and 6.853 pmol/million cells
- ATP, concentration in sample [1, 2]: 3.606 µM and 4.779 µM and 6.177 µM and 4.569 µM
- CTP [1, 2]: 0.05947 pmol/million cells and 0.07319 pmol/million cells and 0.09378 pmol/million cells and 0.06404 pmol/million cells
- CTP, concentration in sample [1, 2]: 0.03965 µM and 0.0488 µM and 0.06252 µM and 0.0427 µM
- GTP [1, 2]: 1.703 pmol/million cells and 2.243 pmol/million cells and 2.533 pmol/million cells and 2.088 pmol/million cells
- GTP, concentration in sample [1, 2]: 1.136 µM and 1.495 µM and 1.689 µM and 1.392 µM
- UTP [1, 2]: 1.47 pmol/million cells and 1.938 pmol/million cells and 2.374 pmol/million cells and 1.838 pmol/million cells
- UTP, concentration in sample [1, 2]: 0.98 µM and 1.292 µM and 1.582 µM and 1.225 µM
- dATP [1, 2]: 0.06549 pmol/million cells and 0.08272 pmol/million cells and 0.09306 pmol/million cells and 0.05859 pmol/million cells
- dATP, concentration in sample [1, 2]: 0.04366 µM and 0.05515 µM and 0.06204 µM and 0.03906 µM
- dCTP [1, 2]: 0.05189 pmol/million cells and 0.07647 pmol/million cells and 0.09423 pmol/million cells and 0.08603 pmol/million cells
- dCTP, concentration in sample [1, 2]: 0.0346 µM and 0.05098 µM and 0.06282 µM and 0.05736 µM
- dGTP [1, 2]: 0.04627 pmol/million cells and 0.03663 pmol/million cells and 0.0347 pmol/million cells and 0.05977 pmol/million cells
- dGTP, concentration in sample [1, 2]: 0.03085 µM and 0.02442 µM and 0.02314 µM and 0.03985 µM
- dTTP [1, 2]: 0.3278 pmol/million cells and 0.3871 pmol/million cells and 0.4104 pmol/million cells and 0.3458 pmol/million cells
- dTTP, concentration in sample [1, 2]: 0.2185 µM and 0.2581 µM and 0.2736 µM and 0.2306 µM
- ADP [1, 3]: 6.536 pmol/million cells and 8.004 pmol/million cells and 7.815 pmol/million cells and 7.971 pmol/million cells
- ADP, concentration in sample [1, 3]: 4.357 µM and 5.336 µM and 5.21 µM and 5.3143 µM
- P1 transporter ΔG^0 (P1 transporter): -22.8 kJ/mol
- P1 transporter δ(ΔG^0) (P1 transporter): 16.6 kJ/mol

SMILES: Nc1ncnc2c1c(Br)cn2[C@@H]1O[C@H](CO)C[C@H]1O [Compound 10, 3’-deoxy-7-Br-tubercidin]
- Gibbs free energy recovered at P1 (P1 transporter; 10 versus 9): 5.9 kJ/mol
- P1 transporter ΔG^0 (P1 transporter): -28.7 kJ/mol
- P1 transporter δ(ΔG^0) (P1 transporter): 10.7 kJ/mol
